# This is one part of the list. These are further read-outs of the screen, such as a control signal, another cell line or another target. No call is given for them. The list favours compounds with an active or inconclusive main result. Potencies come from curve fits of mixed quality, noted in brackets.
# Assay: IkB Signaling
# Conditions: ABC-DLBCL IkBa-CBG/CBR dual luciferase ratio (green luciferase fused to IkBa over red control in OCI-Ly3 lymphoma cells), 4 h
# Outline: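 Curves were fitted separately to fusion (green), unfused (red) and ratio luminescence, then classed by r2, magnitude and activity. Cells: OCI-Ly3, 4 h compound plus doxycycline at 37C; 10 uM MG-132 defined full response.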
# [1] = measured here: control luc red channel unless noted
structure (smiles),measurement,setting,value
COc1ccccc1N(CC(=O)NCCSCc1ccccc1)S(C)(=O)=O,AC50,[1],"39.8 µM [falling, partial curve]"
CCCCc1nn2c(=O)cc(COC(=O)c3cccc(OC)c3)nc2s1,AC50,[1],"39.8 µM [falling, single point]"
COc1ccccc1NC(=O)Cc1nn(C)c(=O)c2ccccc12,AC50,[1],"25.1 µM [falling, single point]"
Cn1c2ccccc2c2c(C(=O)N3CCN(c4ccc(F)cc4)CC3)cn(C3CCCC3)c(=O)c21,AC50,[1],"10 µM [falling, partial curve]"
COc1ccc(-c2cc(C(F)(F)F)nc(SCC(=O)NCc3ccc(OC)c(OC)c3)n2)cc1,AC50,[1],"39.8 µM [rising, partial curve, poor fit]"
CSCCC(NC(=O)c1ccc(C)o1)C(=O)O (stereo unspecified),AC50,[1],"10 µM [falling, partial curve] [measured here: IkB-luc green channel]"
CCC(C)Oc1cccc(OCCCCN2C(=O)NC(C)(C)C2=O)c1 (stereo unspecified),AC50,[1],"20 µM [falling, partial curve]"
O=C(NCc1ccco1)C(c1ccco1)N(CCc1ccccc1)C(=O)Cn1nnc2ccccc21 (stereo unspecified),AC50,[1],"25.1 µM [falling, partial curve]"
CCCc1cc(-c2[nH]ncc2-c2ccc3c(c2)OCCCO3)c(O)cc1O,AC50,[1],"15.8 µM [falling, partial curve]"
CCc1ccc(CNC(=O)c2ccc3c(c2)nc2n3CCC(C)C2)cc1 (stereo unspecified),AC50,[1],"1.58 µM [falling, partial curve]"
COc1cccc(C(=O)Nc2cccc(OCc3cc(=O)n4cc(C)ccc4n3)c2)c1,AC50,[1],"0.631 µM [falling, full curve]"
COc1ccc(NC(=O)CN2C(=O)COc3ccc(S(=O)(=O)Nc4ccccc4)cc32)cc1,AC50,[1],"7.94 µM [falling, single point]"
Cc1ccc2nc(-c3ccc(Cl)cc3)cc(C(=O)OCC(=O)c3ccccc3)c2c1,AC50,[1],"0.126 µM [falling, full curve, poor fit]"
COc1ccc(C(=O)NCCc2sc(-c3ccc(F)cc3)nc2C)cc1OC,AC50,[1],"15.8 µM [falling, partial curve]"
CC1CCC(NC(=O)C2(C)Cc3ccccc3C(=O)N2Cc2ccc(F)cc2)CC1 (stereo unspecified),AC50,[1],"2.51 µM [falling, partial curve]"
CCc1ccc(C2Sc3ccccc3NC3=C2C(=O)c2ccccc23)cc1 (stereo unspecified),AC50,[1],"7.94 µM [falling, partial curve]"
CCC(C(=O)NC1CCCCC1)n1c(SCc2ccc(F)cc2)nc2ccncc21 (stereo unspecified),AC50,[1],"2 µM [falling, full curve]"
O=C(COc1ccccc1-c1nnc(-c2ccccc2)o1)Nc1ccc(Br)cc1F,AC50,[1],"6.31 µM [falling, partial curve]"
Cc1cccc(NCc2nc3ccccc3n2CCOc2ccccc2C)c1,AC50,[1],"12.6 µM [falling, partial curve]"
COc1ccc(NC(=O)c2c(C)oc3ccc(O)c(CN4CCCC4)c23)cc1Cl,AC50,[1],"20 µM [falling, single point]"
CCCN(CC(=O)c1cc(C)n(C)c1C)S(=O)(=O)c1cccc(C(F)(F)F)c1,AC50,[1],"10 µM [falling, partial curve]"
COc1ccc(NC(=O)C2CCC(CNS(=O)(=O)c3ccc4c(c3)C(C)(C)C(=O)N4C)CC2)cc1 (stereo unspecified),AC50,[1],"2.51 µM [rising, partial curve, poor fit]"
COc1cc2cc(C(c3nnnn3C3CCCC3)N3CCc4ccccc43)c(=O)[nH]c2cc1OC (stereo unspecified),AC50,[1],"39.8 µM [falling, partial curve]"
CC(C)c1cc(=O)oc2c3c4c(cc12)CCCN4CCC3,AC50,[1],"15.8 µM [falling, partial curve]"
Cc1cccc(N2CCN(C(=O)Cn3ncc4c3-c3ccccc3OC4)CC2)c1C,AC50,[1],"20 µM [falling, partial curve]"
O=C(Nc1nnc(S(=O)(=O)N2CCCCCC2)s1)c1cccc(Br)c1,AC50,[1],"12.6 µM [falling, partial curve]"
N#Cc1ccccc1Cn1c(SCC(=O)Nc2ccc(F)cc2)nc2ccccc21,AC50,[1],"39.8 µM [falling, single point]"
Clc1cccc(N2CCN(c3c4c(nc5nncn35)CCC4)CC2)c1,AC50,[1],"25.1 µM [falling, single point]"
CCc1ccc(OCC(=O)NCc2ccco2)c(Br)c1,AC50,[1],"20 µM [falling, single point]"
O=C(Nc1ccc(N2CCOCC2)cc1)c1cnsn1,AC50,[1],"20 µM [falling, partial curve]"
O=C(Nc1cccc(Cl)c1)c1cc(-c2ccccc2)on1,AC50,[1],"0.0251 µM [falling, full curve]"
O=c1[nH]c(C2CCCN(S(=O)(=O)c3ccccc3Cl)C2)nc2c1nnn2Cc1ccc(OC(F)(F)F)cc1 (stereo unspecified),AC50,[1],"25.1 µM [falling, partial curve]"
CC1CN(C(=O)CN2C(=O)NC(C)(c3ccccc3)C2=O)CC(C)O1 (stereo unspecified),AC50,[1],"25.1 µM [rising, partial curve]"
CCc1nn(CCCC(=O)N2CCN(c3ccc(OC)cc3)CC2)c(=O)c2cc3occc3n12,AC50,[1],"39.8 µM [falling, single point]"
Cc1c(-c2cccc(NC(=O)Nc3ccccc3)c2)nc2ncccn12,AC50,[1],"39.8 µM [falling, single point]"
CCOC(=O)c1ccccc1NC(=O)c1ccc2c(Cl)c3c(nc2c1)CCC3,AC50,[1],"3.16 µM [falling, partial curve]"
CNC(=O)[C@@H]1O[C@@H](n2cnc3c(NCc4ccc(N)cc4)ncnc32)[C@@H](O)[C@H]1O,AC50,measured here: IkB-luc green channel,"2 µM [rising, full curve]"
same,AC50,measured here: control luc red channel,"3.16 µM [rising, full curve, poor fit]"
COc1ccc(N(C)C(=O)c2nc(-c3cccc(F)c3)n3c2CCCCC3)c(OC)c1,AC50,[1],"39.8 µM [falling, single point]"
Cc1c(Cl)cccc1NC(=O)c1cc2sccc2n1Cc1ccc(F)cc1,AC50,[1],"0.00794 µM [rising, full curve, poor fit]"
Cc1ccc(-c2cc(C(=O)N3CCCC3)no2)cc1,AC50,[1],"1.58 µM [falling, full curve]"

# A portion from the list above, for reference:
structure (smiles),measurement,setting,value
Cc1cccc(NCc2nc3ccccc3n2CCOc2ccccc2C)c1,AC50,[1],"12.6 µM [falling, partial curve]"
COc1ccc(NC(=O)c2c(C)oc3ccc(O)c(CN4CCCC4)c23)cc1Cl,AC50,[1],"20 µM [falling, single point]"
CCCN(CC(=O)c1cc(C)n(C)c1C)S(=O)(=O)c1cccc(C(F)(F)F)c1,AC50,[1],"10 µM [falling, partial curve]"
COc1ccc(NC(=O)C2CCC(CNS(=O)(=O)c3ccc4c(c3)C(C)(C)C(=O)N4C)CC2)cc1 (stereo unspecified),AC50,[1],"2.51 µM [rising, partial curve, poor fit]"
COc1cc2cc(C(c3nnnn3C3CCCC3)N3CCc4ccccc43)c(=O)[nH]c2cc1OC (stereo unspecified),AC50,[1],"39.8 µM [falling, partial curve]"
CC(C)c1cc(=O)oc2c3c4c(cc12)CCCN4CCC3,AC50,[1],"15.8 µM [falling, partial curve]"
Cc1cccc(N2CCN(C(=O)Cn3ncc4c3-c3ccccc3OC4)CC2)c1C,AC50,[1],"20 µM [falling, partial curve]"
O=C(Nc1nnc(S(=O)(=O)N2CCCCCC2)s1)c1cccc(Br)c1,AC50,[1],"12.6 µM [falling, partial curve]"
N#Cc1ccccc1Cn1c(SCC(=O)Nc2ccc(F)cc2)nc2ccccc21,AC50,[1],"39.8 µM [falling, single point]"

# Source: PubChem BioAssay AID445 (National Center for Advancing Translational Sciences (NCATS), 2006)
